Measurements reported in article doi:10.1101/720029.

B1: Erlin1 (protein, UniProt Q58EG2 1-342)
chain: MAHVGAVVAAMAGLMAILLHSSIHKIEEGHLAVYYRGGALLTSPNGPGYHIMLPFITSYRSVQTTLQTDEIKNVPCGTSGGVMIYFDRIEVVNMLIPTSVVDIVRNYTADYDKTLIFNKIHHELNQFCSVHTLQEVYIELFDIIDENLKTALQKDLNCMAPGLTIQAVRVTKPKIPEAIRRNYELMEAEKTRLLITVQTQKVVEKEAETERKKAIIEAQKVAQVAEIQFQQKVMEKETEKKISEIEDAAFLAREKARADAEYYTAAKFAEANTLKLTPEYLQLMKYQAIAANSKIYFGQDIPNMFVDSSASRPAAGESEQLESLSMRESLKKASKPKASEGH
B2: Erlin2 (protein, UniProt A3QK16 1-331)
chain: MTLGAVASLILAIGGAAVFSALHKIEEGHVGVYYRGGALLTATSGPGFHLMLPFITTFKSVQTTLQTDEVKNVPCGTGGGVMIYFDRIEVVNYLVPSAVYGIVRNFTADYDKALIFNKVHHELNQFCSVHTLQDVYIGLFDQIDENLKLTLQEDLTSMAPGLIIQAVRVTKPNIPESIRRNYELMESERTKLLIAAQTQKVVEKEAETERKKAVIEAEKVAQVAEIKFGQKVMEKETEKKISQIEDSAYLARQKAKADAEFYSAQRAAEANKLKLTPEYLQLMKFKAIAANSKIYFGSEIPHMFMDSGPGSSSSAASKAIDVLSEGMLDLE

Biological target: eGFP-Rab28 T26N (zebrafish) (UniProt Q7ZVW0)
Assay: affinity purification with mass spectrometry

Binder	binding
B1	binds
B2	binds

No constants are given. Whether binding was seen depends on the method and setting. Binding seen in cells or lysates may run through a third protein. These calls come from enrichment with a bait or labelling near it, and not all partners need be listed.
